Results are given in words; binding and its absence hold for the method and conditions named. For some assays here: In cells and extracts the contact can be indirect. For some assays here: A result given as binding can be weak or reduced; the word gives no strength. Where a sequence is shown, tags or fusion partners need not be part of it.
Assays:
[1] = biological target: T1, V5-zfVDAC2 (pcDNA3.1-V5-zfVDAC2) (zebrafish) (UniProt Q8AWD0); assay: co-IP
T1 sequence: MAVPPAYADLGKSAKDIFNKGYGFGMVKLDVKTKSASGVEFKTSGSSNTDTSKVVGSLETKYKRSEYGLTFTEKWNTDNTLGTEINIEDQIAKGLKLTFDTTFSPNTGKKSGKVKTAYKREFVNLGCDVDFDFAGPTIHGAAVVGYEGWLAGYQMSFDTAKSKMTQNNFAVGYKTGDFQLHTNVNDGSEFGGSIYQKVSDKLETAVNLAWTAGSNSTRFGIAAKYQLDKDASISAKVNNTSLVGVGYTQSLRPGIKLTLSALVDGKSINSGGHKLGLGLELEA

[2] = biological target: mfVDAC2-BD (mandarin fish); assay: two-hybrid

For HA-p71 (pCMV-HA-ORF71), the binding [1] was “binds”.

B1: p7-AD (protein, UniProt Q4ZD58 1-486)
chain: MLTAIDYLTKKGWKISSDPRTYDGYPKNYGYRNYHENGINYDEFCGGYHRAFDVYSNETNDVPAVTSGTVIEANDYGNFGGTFVIRDANDNDWIYGHLQRGSMRFVVGDKVNQGDIIGLQGNSNYYDNPMSVHLHLQLRPKDAKKDEKSQVCSGLAMEKYDITNLNAKQDKSKNGSVKELKHIYSNHIKGNKITAPKPSIQGVVIHNDYGSMTPSQYLPWLYARENNGTHVNGWASVYANRNEVLWYHPTDYVEWHCGNQWANANLIGFEVCESYPGRISDKLFLENEEATLKVAADVMKSYGLPVNRNTVRLHNEFFGTSCPHRSWDLHVGKGEPYTTTNINKMKDYFIKRIKHYYDGGKLEVSKAATIKQSDVKQEVKKQEAKQIVKATDWKQNKDGIWYKAEHASFTVTAPEGIITRYKGPWTGHPQAGVLQKGQTIKYDEVQKFDGHVWVSWETFEGETVYMPVRTWDAKTGKVGKLWGEIK
With B1 the binding [2] was “no binding”.

From paper doi:10.1101/2025.11.13.688210
